Experimental data from the supplement of paper PMC12067093, “Discovery and optimisation of a covalent ligand for TRIM25 and its application to targeted protein ubiquitination” (Chemical Science, 2025).
The list shows a part of the results.

Protein sequences, listed by entry. Tags and fused reporters are not part of them. Lines headed by an entry give the natural chain unless they say otherwise; changes in a name come on top.
UniProt Q86U38: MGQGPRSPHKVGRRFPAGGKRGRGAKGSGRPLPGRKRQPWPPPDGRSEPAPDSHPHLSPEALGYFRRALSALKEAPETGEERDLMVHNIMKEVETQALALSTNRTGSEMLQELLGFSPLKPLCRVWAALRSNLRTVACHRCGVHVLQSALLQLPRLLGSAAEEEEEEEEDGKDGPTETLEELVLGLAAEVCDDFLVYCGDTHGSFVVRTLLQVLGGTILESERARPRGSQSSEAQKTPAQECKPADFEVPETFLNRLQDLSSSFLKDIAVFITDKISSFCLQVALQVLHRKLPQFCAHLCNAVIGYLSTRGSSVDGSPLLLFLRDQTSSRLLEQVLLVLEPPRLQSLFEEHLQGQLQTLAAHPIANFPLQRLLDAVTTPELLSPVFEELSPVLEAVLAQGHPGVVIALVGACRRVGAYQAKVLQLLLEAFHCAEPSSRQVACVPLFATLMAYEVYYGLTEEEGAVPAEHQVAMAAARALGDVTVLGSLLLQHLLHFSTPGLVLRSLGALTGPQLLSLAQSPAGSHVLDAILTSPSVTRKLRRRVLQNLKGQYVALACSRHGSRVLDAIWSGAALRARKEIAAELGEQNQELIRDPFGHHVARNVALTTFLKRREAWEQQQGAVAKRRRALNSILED
UniProt O43847: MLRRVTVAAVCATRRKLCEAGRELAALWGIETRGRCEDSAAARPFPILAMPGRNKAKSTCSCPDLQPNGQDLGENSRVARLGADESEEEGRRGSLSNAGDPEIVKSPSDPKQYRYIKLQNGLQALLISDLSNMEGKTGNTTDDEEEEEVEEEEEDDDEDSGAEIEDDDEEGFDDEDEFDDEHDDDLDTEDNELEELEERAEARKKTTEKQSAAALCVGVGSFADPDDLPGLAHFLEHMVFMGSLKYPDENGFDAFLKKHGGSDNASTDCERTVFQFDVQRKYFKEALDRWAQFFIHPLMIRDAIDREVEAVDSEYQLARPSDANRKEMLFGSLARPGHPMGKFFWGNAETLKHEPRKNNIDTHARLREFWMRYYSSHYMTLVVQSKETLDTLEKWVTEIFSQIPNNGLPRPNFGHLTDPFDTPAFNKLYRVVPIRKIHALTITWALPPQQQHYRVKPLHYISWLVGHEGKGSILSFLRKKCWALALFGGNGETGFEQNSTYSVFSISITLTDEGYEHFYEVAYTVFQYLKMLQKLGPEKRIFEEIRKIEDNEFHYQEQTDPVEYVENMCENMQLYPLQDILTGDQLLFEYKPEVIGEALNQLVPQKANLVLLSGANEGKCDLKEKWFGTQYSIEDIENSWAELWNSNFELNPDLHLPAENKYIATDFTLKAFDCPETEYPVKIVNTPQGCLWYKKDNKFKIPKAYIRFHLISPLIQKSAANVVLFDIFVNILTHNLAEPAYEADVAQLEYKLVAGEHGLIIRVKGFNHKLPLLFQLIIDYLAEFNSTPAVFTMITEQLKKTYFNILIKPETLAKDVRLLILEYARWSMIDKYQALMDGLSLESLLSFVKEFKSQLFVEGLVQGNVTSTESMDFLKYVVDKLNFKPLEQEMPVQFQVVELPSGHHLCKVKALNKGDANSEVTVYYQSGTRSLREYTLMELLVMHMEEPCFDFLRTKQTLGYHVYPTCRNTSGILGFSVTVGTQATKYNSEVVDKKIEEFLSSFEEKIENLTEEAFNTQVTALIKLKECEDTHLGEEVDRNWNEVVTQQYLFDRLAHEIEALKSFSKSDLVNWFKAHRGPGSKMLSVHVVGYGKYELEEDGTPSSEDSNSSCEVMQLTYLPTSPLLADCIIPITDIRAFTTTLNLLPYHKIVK
UniProt Q9BYT8, whole entry, looked up: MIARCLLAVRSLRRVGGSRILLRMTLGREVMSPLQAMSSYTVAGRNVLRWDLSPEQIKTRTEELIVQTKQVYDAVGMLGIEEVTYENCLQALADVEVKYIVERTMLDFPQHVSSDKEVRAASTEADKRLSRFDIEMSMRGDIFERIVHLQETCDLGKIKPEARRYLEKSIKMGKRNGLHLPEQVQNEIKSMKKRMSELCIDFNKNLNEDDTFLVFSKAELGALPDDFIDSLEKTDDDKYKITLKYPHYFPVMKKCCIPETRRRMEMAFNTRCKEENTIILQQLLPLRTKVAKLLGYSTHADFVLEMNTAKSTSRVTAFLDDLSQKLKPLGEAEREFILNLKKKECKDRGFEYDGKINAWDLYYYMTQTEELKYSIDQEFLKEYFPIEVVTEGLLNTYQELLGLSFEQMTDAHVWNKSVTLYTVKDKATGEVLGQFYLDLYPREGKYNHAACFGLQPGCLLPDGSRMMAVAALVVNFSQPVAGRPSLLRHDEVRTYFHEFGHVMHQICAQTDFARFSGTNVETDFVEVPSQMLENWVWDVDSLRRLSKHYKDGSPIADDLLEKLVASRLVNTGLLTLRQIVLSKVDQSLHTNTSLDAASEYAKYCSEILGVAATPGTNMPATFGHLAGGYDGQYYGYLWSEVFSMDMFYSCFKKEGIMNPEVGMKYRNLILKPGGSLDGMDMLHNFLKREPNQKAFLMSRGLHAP
UniProt P16083: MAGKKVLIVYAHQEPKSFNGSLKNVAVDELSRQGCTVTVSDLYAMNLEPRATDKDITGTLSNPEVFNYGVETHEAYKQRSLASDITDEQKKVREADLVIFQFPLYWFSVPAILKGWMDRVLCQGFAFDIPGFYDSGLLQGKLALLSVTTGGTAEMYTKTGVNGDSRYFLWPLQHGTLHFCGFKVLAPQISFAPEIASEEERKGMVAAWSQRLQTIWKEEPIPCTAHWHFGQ
UniProt P30419: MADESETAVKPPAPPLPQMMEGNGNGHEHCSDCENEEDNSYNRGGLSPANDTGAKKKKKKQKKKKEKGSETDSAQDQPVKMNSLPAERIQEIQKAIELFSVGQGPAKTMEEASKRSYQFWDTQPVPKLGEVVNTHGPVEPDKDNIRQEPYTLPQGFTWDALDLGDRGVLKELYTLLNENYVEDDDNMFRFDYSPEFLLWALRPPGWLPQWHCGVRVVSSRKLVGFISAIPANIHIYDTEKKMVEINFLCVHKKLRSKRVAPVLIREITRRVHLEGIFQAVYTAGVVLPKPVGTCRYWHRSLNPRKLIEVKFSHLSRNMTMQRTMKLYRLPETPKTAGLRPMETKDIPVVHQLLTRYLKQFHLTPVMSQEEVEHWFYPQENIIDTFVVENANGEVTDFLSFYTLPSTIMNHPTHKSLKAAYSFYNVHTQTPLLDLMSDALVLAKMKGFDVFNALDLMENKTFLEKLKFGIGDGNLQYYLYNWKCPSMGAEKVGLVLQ
UniProt P13056: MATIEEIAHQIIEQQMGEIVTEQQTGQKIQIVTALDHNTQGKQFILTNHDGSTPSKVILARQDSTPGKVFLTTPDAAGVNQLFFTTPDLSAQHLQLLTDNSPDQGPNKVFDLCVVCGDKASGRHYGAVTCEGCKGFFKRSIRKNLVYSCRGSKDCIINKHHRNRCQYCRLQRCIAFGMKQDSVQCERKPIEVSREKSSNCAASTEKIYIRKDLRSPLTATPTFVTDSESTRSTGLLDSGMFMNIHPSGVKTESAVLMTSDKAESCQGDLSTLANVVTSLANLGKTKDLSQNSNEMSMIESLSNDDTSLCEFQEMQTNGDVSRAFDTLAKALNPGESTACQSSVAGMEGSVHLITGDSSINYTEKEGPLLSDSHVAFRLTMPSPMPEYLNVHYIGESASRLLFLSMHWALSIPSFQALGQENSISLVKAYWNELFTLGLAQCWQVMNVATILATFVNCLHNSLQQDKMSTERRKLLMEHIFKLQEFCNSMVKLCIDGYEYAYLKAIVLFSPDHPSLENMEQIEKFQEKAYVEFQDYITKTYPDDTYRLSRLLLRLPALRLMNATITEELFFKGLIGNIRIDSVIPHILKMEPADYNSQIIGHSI
UniProt Q9HAN9, whole entry, looked up: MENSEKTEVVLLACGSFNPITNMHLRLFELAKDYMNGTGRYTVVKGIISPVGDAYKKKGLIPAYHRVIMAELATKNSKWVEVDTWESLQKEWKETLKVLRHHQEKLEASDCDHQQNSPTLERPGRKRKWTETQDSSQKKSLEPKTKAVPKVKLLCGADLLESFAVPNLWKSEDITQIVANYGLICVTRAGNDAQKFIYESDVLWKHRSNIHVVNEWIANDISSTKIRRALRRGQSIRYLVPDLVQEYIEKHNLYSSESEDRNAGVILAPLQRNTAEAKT
UniProt Q9UK39: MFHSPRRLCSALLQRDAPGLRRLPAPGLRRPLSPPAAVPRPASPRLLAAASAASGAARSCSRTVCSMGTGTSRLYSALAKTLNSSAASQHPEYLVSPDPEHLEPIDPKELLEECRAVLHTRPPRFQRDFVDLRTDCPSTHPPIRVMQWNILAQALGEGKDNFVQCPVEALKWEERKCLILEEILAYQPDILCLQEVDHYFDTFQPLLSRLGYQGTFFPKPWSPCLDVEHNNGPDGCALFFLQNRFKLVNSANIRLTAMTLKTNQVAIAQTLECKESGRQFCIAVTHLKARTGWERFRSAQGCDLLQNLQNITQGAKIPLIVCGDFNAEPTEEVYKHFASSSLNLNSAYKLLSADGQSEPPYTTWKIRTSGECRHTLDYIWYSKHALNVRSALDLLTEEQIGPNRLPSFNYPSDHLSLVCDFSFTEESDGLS
UniProt Q9NPE3: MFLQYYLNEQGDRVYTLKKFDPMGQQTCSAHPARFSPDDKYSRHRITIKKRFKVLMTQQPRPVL
UniProt Q8WV22: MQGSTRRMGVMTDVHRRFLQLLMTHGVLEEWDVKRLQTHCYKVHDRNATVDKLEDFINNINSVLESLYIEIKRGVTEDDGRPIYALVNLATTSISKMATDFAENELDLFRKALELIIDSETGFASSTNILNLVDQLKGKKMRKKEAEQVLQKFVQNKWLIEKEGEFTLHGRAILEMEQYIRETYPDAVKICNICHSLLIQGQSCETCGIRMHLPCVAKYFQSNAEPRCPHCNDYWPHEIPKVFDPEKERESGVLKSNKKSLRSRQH
UniProt Q15233: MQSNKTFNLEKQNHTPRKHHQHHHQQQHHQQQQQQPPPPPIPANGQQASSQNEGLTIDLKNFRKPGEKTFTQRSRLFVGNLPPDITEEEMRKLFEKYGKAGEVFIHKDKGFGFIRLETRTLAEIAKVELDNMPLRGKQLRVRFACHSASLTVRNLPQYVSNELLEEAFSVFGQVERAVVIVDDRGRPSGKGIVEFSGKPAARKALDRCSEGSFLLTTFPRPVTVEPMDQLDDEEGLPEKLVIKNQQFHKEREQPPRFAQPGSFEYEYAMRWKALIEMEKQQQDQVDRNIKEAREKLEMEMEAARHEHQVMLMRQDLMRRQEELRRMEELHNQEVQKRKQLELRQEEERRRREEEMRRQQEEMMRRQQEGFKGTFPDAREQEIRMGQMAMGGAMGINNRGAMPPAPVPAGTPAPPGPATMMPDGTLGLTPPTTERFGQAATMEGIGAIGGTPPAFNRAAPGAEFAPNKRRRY
UniProt Q96MF7: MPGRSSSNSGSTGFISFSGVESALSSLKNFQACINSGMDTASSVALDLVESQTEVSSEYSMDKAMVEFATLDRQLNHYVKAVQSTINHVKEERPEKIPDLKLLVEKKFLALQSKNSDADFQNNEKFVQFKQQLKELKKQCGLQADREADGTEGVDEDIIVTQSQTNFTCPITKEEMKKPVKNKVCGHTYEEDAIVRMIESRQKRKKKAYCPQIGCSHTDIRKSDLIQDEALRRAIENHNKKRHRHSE
UniProt Q86UT6, whole entry, looked up: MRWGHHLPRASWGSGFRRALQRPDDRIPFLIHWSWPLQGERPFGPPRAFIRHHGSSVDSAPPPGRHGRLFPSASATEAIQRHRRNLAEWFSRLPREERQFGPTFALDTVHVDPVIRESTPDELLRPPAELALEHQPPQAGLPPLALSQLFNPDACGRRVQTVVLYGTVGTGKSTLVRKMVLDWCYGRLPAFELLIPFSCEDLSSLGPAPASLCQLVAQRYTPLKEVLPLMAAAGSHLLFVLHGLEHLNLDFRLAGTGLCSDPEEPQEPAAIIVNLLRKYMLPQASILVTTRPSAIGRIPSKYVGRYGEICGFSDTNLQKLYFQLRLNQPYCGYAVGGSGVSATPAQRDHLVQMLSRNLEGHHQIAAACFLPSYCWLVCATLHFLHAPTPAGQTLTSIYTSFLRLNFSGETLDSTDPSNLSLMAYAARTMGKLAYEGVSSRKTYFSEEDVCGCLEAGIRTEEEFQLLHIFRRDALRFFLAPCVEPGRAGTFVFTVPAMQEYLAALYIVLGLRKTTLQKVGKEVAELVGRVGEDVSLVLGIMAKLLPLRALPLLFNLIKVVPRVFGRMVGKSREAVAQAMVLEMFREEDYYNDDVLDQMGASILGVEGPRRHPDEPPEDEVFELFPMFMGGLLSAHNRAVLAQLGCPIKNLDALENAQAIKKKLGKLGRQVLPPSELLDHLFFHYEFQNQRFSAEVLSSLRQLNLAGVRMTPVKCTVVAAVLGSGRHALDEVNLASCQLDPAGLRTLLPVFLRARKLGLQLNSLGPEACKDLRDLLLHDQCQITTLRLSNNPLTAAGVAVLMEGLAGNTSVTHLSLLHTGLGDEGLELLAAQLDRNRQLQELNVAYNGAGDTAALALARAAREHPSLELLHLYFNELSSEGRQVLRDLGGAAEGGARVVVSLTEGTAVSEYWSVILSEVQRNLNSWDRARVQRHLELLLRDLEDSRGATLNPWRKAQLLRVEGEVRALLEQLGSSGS

Compound: Cc1cc(ccc1-c1ccccc1)C(=O)N1CCCN(CC1)C(=O)CCl [compound 10]
Test: probe-labelled cysteine peptide fold change vs DMSO (competition) (log2 fold change); higher = less target engagement (more negative = stronger competition)
Settings: THP-1, incubation time: 4 h
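Note: competitive profiling in live THP-1 cells: cysteine peptides tagged with an iodoacetamide desthiobiotin (IA-DTB) probe, intensity after compound treatment relative to DMSO-treated cells.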

Row | Target | probe-labelled cysteine peptide fold change (10 µM) | probe-labelled cysteine peptide fold change (50 µM)
1 | NOP9_Q86U38_138_TVACHR (UniProt Q86U38) | 0.265 | 0.0436
2 | NRDC_O43847_690_IVNTPQGCLWYK (UniProt O43847) | -0.0135 | 0.0567
3 | NSUN2_Q08J23_221_CYLLVHQAK (UniProt Q08J23) | 0.00563 | -0.271
4 | NLN_Q9BYT8_199_MSELCIDFNK (UniProt Q9BYT8) | 0.0165 | -0.033
5 | NQO2_P16083_223_EEPIPCTAHWHFGQ (UniProt P16083) | 0.033 | 0.169
6 | NMT1_P30419_483_CPSMGAEK (UniProt P30419) | -0.111 | -0.219
7 | NR2C1_P13056_185_QDSVQCER (UniProt P13056) | -0.00946 | -0.317
8 | NMNAT1_Q9HAN9_111_LEASDCDHQQNSPTLERPGRK (UniProt Q9HAN9) | -0.146 | -0.461
9 | NOCT_Q9UK39_165_DNFVQCPVEALK (UniProt Q9UK39) | -0.16 | -0.364
10 | NOP10_Q9NPE3_28_FDPMGQQTCSAHPAR (UniProt Q9NPE3) | -0.0182 | 0.0234
11 | NSMCE1_Q8WV22_207_ICNICHSLLIQGQSCETCGIR (UniProt Q8WV22) | -0.0377 | 0.0458
12 | NONO_Q15233_145_FACHSASLTVR (UniProt Q15233) | -0.166 | -0.853
13 | NLN_Q9BYT8_153_IVHLQETCDLGK (UniProt Q9BYT8) | -0.194 | -0.0185
14 | NSD2_O96028_207_ESCPNTGR (UniProt O96028) | -0.0881 | -0.32
15 | NSMCE2_Q96MF7_185_VCGHTYEEDAIVR (UniProt Q96MF7) | 0.341 | -0.0323
16 | NSMAF_Q92636_803+809_EGTVNIWDLTTATLMHQIPCHSGIVCDTAFSPDSR (UniProt Q92636) | 0.0915 | -0.0821
17 | NRDC_O43847_1027_ECEDTHLGEEVDRNWNEVVTQQYLFDR (UniProt O43847) | 0.0585 | 0.155
18 | NLRX1_Q86UT6_481_FFLAPCVEPGR (UniProt Q86UT6) | 0.293 | 0.279
